Measurements from “University of Dundee, Small-Polar-MMV Screening Library” (2021), ChEMBL document CHEMBL3988442.

Chains of the proteins cited; added tags and fusions are not shown.
UniProt P9WNZ1, whole entry: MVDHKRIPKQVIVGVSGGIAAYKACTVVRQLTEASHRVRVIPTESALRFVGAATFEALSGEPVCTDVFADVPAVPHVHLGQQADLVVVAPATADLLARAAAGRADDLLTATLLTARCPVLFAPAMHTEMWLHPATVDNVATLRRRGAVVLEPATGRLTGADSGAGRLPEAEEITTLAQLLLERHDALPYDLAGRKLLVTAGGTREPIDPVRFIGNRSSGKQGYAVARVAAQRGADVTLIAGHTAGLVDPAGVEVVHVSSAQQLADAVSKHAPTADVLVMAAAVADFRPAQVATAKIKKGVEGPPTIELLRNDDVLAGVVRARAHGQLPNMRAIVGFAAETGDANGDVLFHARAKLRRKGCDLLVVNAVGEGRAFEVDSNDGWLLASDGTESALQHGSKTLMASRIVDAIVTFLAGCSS

Leishmania in macrophages: 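Cell assay of Leishmania donovani living inside macrophages; the read-out is not stated. Tested at 30 µM. Direction is inferred from retests: higher values go with stronger inhibition. Size under these conditions: about 69,000 compounds, about 1,000 of them at 50% or above in at least one test.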
CoaBC: 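Enzyme assay of CoaBC with a phosphate dye (Biomol Green) read at 650 nm. Target: Coenzyme A biosynthesis protein CoaBC, Mycobacterium tuberculosis (UniProt P9WNZ1). Concentration: 30 µM. Higher reads as stronger inhibition, judged from the few compounds that gave an IC50. Most strong results did not repeat in a second test. Size under these conditions: about 67,000 compounds, about 40 of them at 50% or above in at least one test.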

Results are given as percent effect.
How 0% and 100% were set is not recorded. Most values in the screen are low, and negative values occur.
This is an unselected part of the compounds tested.
Two or more numbers in one place are separate tests of the same structure; such repeats can differ widely.
A dash means the value is not listed here; it may have been measured.

structure,Leishmania in macrophages,CoaBC
CCCOCC(=O)NS(=O)(=O)c1ccc2c(c1)OCCO2,-13.84%,1.956%
CCOC(=O)Cn1ccc(O)c(Cc2ccc(Cl)cc2Cl)c1=O,-0.4976%,5.754%
CNc1ncc(C(=O)N2CCC(CCc3ccccc3)CC2)cn1,10.59%,13.87%
CC(C)C(=O)NC1COC2(CCN(Cc3cccnc3)CC2)C1 (centres unmarked),-,5.598%
O=C(Nc1ccc(-n2cncn2)nc1)N(CC1CCOC1)C1CC1 (centres unmarked),20.81%,20.91% & 2.116%
O=C(NCC(O)c1ccccc1C(F)(F)F)c1cccnc1 (centres unmarked),-0.2997%,6.341%
CC(C)=CCN1C[C@@H](C(=O)O)C[C@H](C(=O)Nc2ccc(C)nc2)C1,7.861%,-3.704%
NCc1csc(CCc2ccccc2)n1,-0.1174%,-3.566%
O=C(c1n[nH]c(=O)c2ccccc12)N1CCC(O)(CN2CCOCC2)C1 (centres unmarked),-5.638%,5.226%
O=C(CCNC(=O)c1ccccc1)Nc1ccncc1,33.98%,7.962%
CN1CC[C@H](c2ccccc2)[C@@H]2[C@H]1CCCCN2C(=O)c1cnccn1,-,2.5%
CC(=O)N1CCc2nc(-c3ccccc3)nc(NC(C)C)c2CC1,27.78%,4.198%
Cc1ncc(CNC2CC(=O)N(CCc3ccc(F)cc3)C2)n1C (centres unmarked),-5.321%,-3.247%
CCOc1ccccc1CN(C)C(C)c1nc(-c2cccnc2)no1 (centres unmarked),4.847%,4.713%
[H][C@]12CC[C@@]([H])(C1)N(Cc1ccccc1OCCCN1CCN(C)CC1)C2,26.68%,-
Cc1cccc(CN2CCCC3(CCN(CC4CCCO4)CC3)C2)n1.O=C(O)C(F)(F)F.O=C(O)C(F)(F)F (centres unmarked),18.88%,-
Cn1ccc(C(=O)N2CCN(c3ccccn3)CC2)cc1=O,37.32%,14.04%
[H][C@]12CCN(S(C)(=O)=O)[C@@]1([H])CC[C@H](COCC(=O)N1CCCC1)O2,14.26%,-
Cc1nc2n(n1)CC(Nc1ccnc(-c3ccccc3)n1)CC2 (centres unmarked),36.34%,9.827%
O=C(NCCc1noc(-c2ccccn2)n1)NCC1CCCC1,13.56%,2.804%
Cc1cc(C)c(N(CC(O)CNCc2ccco2)S(C)(=O)=O)c(C)c1 (centres unmarked),-,1.211%
CC(C)(C)C1CCC(NCCN2CCOCC2)CC1 (centres unmarked),43.21%,-3.478%
COc1cccc(CN2CCCC3(CCN(C(=O)c4ccco4)C3)C2)c1 (centres unmarked),53.43%,3.144%
Cc1cc(NC(=O)NCC(C)N2CCOCC2)n(C)n1 (centres unmarked),30.54%,17.32%
Cc1ccc(CN2CCN(Cc3cc(C)n[nH]3)CC2CCO)cc1 (centres unmarked),-13.44%,7.172%
Cc1ccc(NC(=O)N(C)CC(O)COCCOC(C)C)c(Br)c1 (centres unmarked),11.62%,-3.478%
O=C(CCOc1ccccc1Cl)N1CCN(c2cnccn2)CC1,23.87%,-5.63%
O=C1CC2(CCCNC2)C(=O)N1Cc1ccc(F)cc1 (centres unmarked),-,3.386%
CCCS(=O)(=O)N1CCN(c2ccc3nnc(CC)n3n2)CC1,-4.571%,1.654%
O=C(CCc1nc(-c2cccnc2)no1)N(CC1CCOC1)C1CC1 (centres unmarked),-15.4%,8.884%
[H][C@]1([C@H](O)c2ccc(NC(=O)c3cccnc3)cc2)COCC(=O)N1,22.72%,-
O=C(NCCC1CN(C2CCCC2)CCO1)c1c[nH]c(=O)[nH]c1=O (centres unmarked),19.62%,10.68%
[H][C@@]12CCN(C(=O)c3c(C)noc3C)C[C@@]1([H])O[C@@H](c1ccnc(C)n1)C2,16.88%,-
Cc1cc(C(=O)NC(C)c2nnn[nH]2)c2cccc(C)c2n1 (centres unmarked),19.52%,-3.686%
Cc1ccoc1C(=O)N1C[C@@H](OCC2CC2)[C@H]2OCCC[C@H]21,-,11.25%
O=C(c1cc(Cl)c2c(c1)OCO2)N1CCN(c2ncccn2)CC1,8.12%,-3.046%
CC(C)c1cc(NC(=O)CN2CCc3cncnc3C2)on1,5.905%,-1.446%
CCOCC(=O)Nc1nccn1Cc1ccccc1Cl,33.95%,6.796%
O=C(O)C(F)(F)F.c1csc(CN2CCc3onc(Cn4cccc4)c3C2)c1,6.665%,-
CCO[C@H]1COC[C@@H]1NC(=O)CCc1nc(-c2ccccc2)no1,3.135%,-1.394%
Cc1cn2c(n1)CCC(NC(=O)c1cncnc1C)C2 (centres unmarked),-5.097%,2.089%
Cn1c(Cn2cccn2)nnc1C1CCN(Cc2cccnc2)CC1,-9.293%,-0.5102%
COCCN(Cc1ccco1)Cc1nc(-c2ccsc2)no1,-14.39%,-3.089%
O=C(CCc1nnc2ccccn2c1=O)NCc1ccco1,-41.32%,0.4819%
CC(C)N(C)C(=O)C1=NOC2(CCN(C(=O)c3cccn3C)C2)C1 (centres unmarked),38.27%,-29.56%
O=c1[nH]nc2c(S(=O)(=O)N3CCCCCC3)cccn12,-14.14%,3.874%
CCC(=O)Nc1ccc2c(c1)C1(CCOCC1)CN2CCF.O=C(O)C(F)(F)F,20.97%,-
CCn1nc(C)c2nc(C(C)C)nc(NCC(C)C)c21,2.696%,2.771%
COCCN1CCN(c2nc(O)cc(Cc3ccccc3F)n2)CC1,-40.85%,4.429%
CNc1ncc(CN(C)C(=O)c2cccc(-n3cnnc3)c2)cn1,20.65%,5.549%
O=C(CNc1ccc(OC2CCOC2)cc1)NCc1cccs1 (centres unmarked),-73.71%,5.144%
CCc1ccc(S(=O)(=O)Nc2cn(C)cc(Br)c2=O)cc1,-9.851%,7.889%
Cc1cc(C)cc(C(=O)NCCCNc2ncccn2)c1,-27.47%,-0.615%
O=C(NCCN1CCC(c2cccs2)CC1)c1ccc(F)cc1Cl,-27%,3.008%
O=S1(=O)c2ccccc2C(O)CN1CCO (centres unmarked),5.205%,2.421%
COCCN1C(=O)CC(N2CCN(c3ccccc3)CC2)C1=O (centres unmarked),-13.12%,0.2551%
Cc1csc2c(C3CCN(CCCOc4ccccc4)CC3)nc(C)n12,-22.2%,-6.165%
O=S(=O)(c1cccnc1)N1C[C@@H]2CC[C@H](C1)N(Cc1ccccn1)C2,-,0.6173%
Cc1nc(CNC(=O)c2cc(Cn3ccnc3C(C)C)[nH]n2)sc1C,17.23% & 16.23%,4.58%
CS(=O)(=O)N1CCC(c2nnc(Cn3ccnc3)n2C2CC2)CC1,-17.76%,-8.779%
O=C(c1ccco1)N1CC[C@H]2[C@H]1CC(=O)N2c1cccnc1,-,-1.232%
[H][C@]12CC[C@]([H])(CN(Cc3[nH]cnc3C)C1)N(C(=O)CCn1cncn1)C2,-2.311%,-
CCN1C[C@H]2[C@@H](C1)N(c1ncc(F)cn1)CC[C@H]2OC,-,-0.2114%
[H][C@@]12CS(=O)(=O)C[C@]1([H])N(C(=O)c1cc(Cl)no1)CCN2C(=O)C(C)C,9.454%,-
Cc1csc2c(N3CCC(NCCCc4ccncc4)CC3)ncnc12,36.59%,-3.182%
CC(C)c1nc(C2CCCN(C(=O)c3ccc(N(C)C)nn3)C2)no1 (centres unmarked),7.915%,1.121%
C=C(C)CNc1nc(CS(=O)(=O)c2ccccc2)cs1,12.88%,-3.175%
CCCS(=O)(=O)N1CCC(Oc2ccc(C#N)cc2)CC1,-43.85%,1.493%
CN(CCCc1cc(-c2ccccc2)n[nH]1)C(=O)CCCn1cncn1,19.31%,0.9662%
CC(C)n1[nH]c(=O)c2c1NC(=O)CC2C1CCCCC1 (centres unmarked),20.7%,-3.89%
CC(C)(C)c1n[nH]cc1CNC1CCC(O)CC1 (centres unmarked),2.635%,7.905%

The last 7 entries again:

| structure | Leishmania in macrophages | CoaBC |
|---|---|---|
| `Cc1csc2c(N3CCC(NCCCc4ccncc4)CC3)ncnc12` | 36.59% | -3.182% |
| `CC(C)c1nc(C2CCCN(C(=O)c3ccc(N(C)C)nn3)C2)no1` (centres unmarked) | 7.915% | 1.121% |
| `C=C(C)CNc1nc(CS(=O)(=O)c2ccccc2)cs1` | 12.88% | -3.175% |
| `CCCS(=O)(=O)N1CCC(Oc2ccc(C#N)cc2)CC1` | -43.85% | 1.493% |
| `CN(CCCc1cc(-c2ccccc2)n[nH]1)C(=O)CCCn1cncn1` | 19.31% | 0.9662% |
| `CC(C)n1[nH]c(=O)c2c1NC(=O)CC2C1CCCCC1` (centres unmarked) | 20.7% | -3.89% |
| `CC(C)(C)c1n[nH]cc1CNC1CCC(O)CC1` (centres unmarked) | 2.635% | 7.905% |